Laboratory results taken from publication PMC3814370, “Functional assignment of KEOPS/EKC complex subunits in the biosynthesis of the universal t^6A tRNA modification” (Nucleic Acids Research, 2013).
No constants are given. Whether binding was seen depends on the method and setting. Some binding calls cover weakened binding; strength is not graded here.

Amino acid sequences for entries named in this document (tags omitted).
UniProt Q9UXT7: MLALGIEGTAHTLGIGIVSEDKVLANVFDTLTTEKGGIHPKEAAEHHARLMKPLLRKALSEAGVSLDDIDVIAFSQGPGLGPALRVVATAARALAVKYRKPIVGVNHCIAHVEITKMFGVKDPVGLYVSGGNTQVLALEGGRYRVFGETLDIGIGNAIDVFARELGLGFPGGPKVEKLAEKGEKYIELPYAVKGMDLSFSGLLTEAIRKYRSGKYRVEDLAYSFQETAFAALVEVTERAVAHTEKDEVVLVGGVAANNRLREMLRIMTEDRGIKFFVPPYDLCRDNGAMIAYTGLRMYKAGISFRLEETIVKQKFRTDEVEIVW

How the values were obtained:
[1] = biological target: T1, Bud32–Cgi121 binary complex from Pyrococcus abyssi (Pyrococcus abyssi) (UniProt Q9UYB9+Q9UZ62); assay: co-purification of co-expressed proteins (Ni-NTA, then gel filtration); subunits co-expressed in E. coli; extract heated at 65°C for 15 min; His-tagged proteins purified on Ni-NTA, then Superdex 200 in storage buffer (LBs); fractions analysed by SDS-PAGE
T1 sequence 1: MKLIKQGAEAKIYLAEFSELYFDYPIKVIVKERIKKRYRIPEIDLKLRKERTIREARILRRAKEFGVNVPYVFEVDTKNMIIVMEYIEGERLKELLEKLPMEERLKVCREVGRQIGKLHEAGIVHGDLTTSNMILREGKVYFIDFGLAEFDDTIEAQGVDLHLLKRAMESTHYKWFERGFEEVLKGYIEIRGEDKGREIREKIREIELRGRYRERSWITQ
T1 sequence 2: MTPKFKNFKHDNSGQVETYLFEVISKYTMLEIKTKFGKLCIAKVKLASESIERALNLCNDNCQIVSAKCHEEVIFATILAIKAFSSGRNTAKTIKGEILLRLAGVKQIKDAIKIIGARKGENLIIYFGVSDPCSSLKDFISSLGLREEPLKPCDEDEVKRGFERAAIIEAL

[2] = biological target: Kae1–Bud32–Cgi121 ternary complex from Pyrococcus abyssi (Pyrococcus abyssi) (UniProt Q9UXT7+Q9UYB9+Q9UZ62); assay: SEC; gel filtration of purified proteins and complexes on Superdex 200 in storage buffer (LBs); apparent molecular mass (Supplementary Figure S2); both purified

binding [1] | binding [2] | Substance
binds | – | Kae1 from Pyrococcus abyssi (from UniProt Q9UXT7 1-324) (enzyme)
– | no binding | Kae1–Bud32–Cgi121 ternary complex from Pyrococcus abyssi (from UniProt Q9UXT7 1-324; Q9UYB9 1-220; Q9UZ62 1-171)
